Test results taken from patent US20220202705A1, “THERMORESPONSIVE HYDROGEL CONTAINING POLYMER MICROPARTICLES FOR NONINVASIVE OCULAR BIOLOGIC DELIVERY” (University of Pittsburgh - Of the Commonwealth System of …, priority 2016, published 2022).
For at least one compound, name, drawing or mass did not settle the structure.

Assay: Loading and release of other drugs from microparticles embedded in the gel
Type: physicochemical
Description: The loading and release of other drugs (moxiflxacin and vancomycin) with the microparticles embedded within the gel has also been confirmed.

## COc1c(N2C[C@@H]3CCCN[C@@H]3C2)c(F)cc2c(=O)c(C(=O)O)cn(C3CC3)c12 [moxiflxacin]
  loading and release with microparticles embedded within the gel: confirmed
